Reference: patent US11352350B2, “IRAK degraders and uses thereof” (Kymera Therapeutics, Inc., priority 2018, dated 2022)
Structures were worked out from names or drawings and are uncertain.

Amino acid sequences for entries named in this document (tags omitted).
UniProt Q9NWZ3, whole entry: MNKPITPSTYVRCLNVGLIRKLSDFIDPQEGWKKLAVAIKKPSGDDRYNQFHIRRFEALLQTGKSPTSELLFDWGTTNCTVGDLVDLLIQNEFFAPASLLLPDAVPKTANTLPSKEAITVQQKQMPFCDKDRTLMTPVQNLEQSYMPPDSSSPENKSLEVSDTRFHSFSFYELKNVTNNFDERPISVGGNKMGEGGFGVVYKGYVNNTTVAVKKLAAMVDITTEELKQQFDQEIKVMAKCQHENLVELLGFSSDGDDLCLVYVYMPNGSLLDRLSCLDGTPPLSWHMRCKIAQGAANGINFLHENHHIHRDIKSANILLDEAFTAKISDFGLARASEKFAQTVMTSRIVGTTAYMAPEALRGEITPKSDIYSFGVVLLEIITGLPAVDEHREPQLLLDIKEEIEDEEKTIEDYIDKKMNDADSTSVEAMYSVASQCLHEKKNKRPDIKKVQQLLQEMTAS

Legend:
[1] = target: IRAK4 (Homo sapiens (Human), UniProt Q9NWZ3); experiment: IRAK4 MSD degradation in OCI-LY10; type: cell-based; conditions: read-out: IRAK4 MSD degradation in OCI-LY10 at 4 hrs: Average external-Abs DC50, OCI-LY10, 4 hrs
[2] = tested on: OCI-LY10; experiment: CTG Cell Viability Assay - OCI-LY10; conditions: read-out: CTG Cell Viability Assay - OCI-LY10: Average external-IC50; OCI-LY10, 4 days

Cn1c(=O)n(C2CCC(=O)NC2=O)c2cccc(CCCOC3CCN(C[C@H]4CC[C@H](n5cc(NC(=O)c6cnn7ccc(N[C@@H]8CCCC[C@@H]8O)nc67)c(C(F)F)n5)CC4)CC3)c21 (relative stereo)
DC50 [1]: 10 to 100 nM | IC50 [2]: > 1000 nM
